We go through 62 molecules from PubChem BioAssay AID493027 (The Scripps Research Institute Molecular Screening Center, 2011).

The chains behind the UniProt entries cited, without tags or fusion partners. Where a name states a change or a piece, a line headed by the entry shows the natural chain unless it says otherwise.
UniProt O60240: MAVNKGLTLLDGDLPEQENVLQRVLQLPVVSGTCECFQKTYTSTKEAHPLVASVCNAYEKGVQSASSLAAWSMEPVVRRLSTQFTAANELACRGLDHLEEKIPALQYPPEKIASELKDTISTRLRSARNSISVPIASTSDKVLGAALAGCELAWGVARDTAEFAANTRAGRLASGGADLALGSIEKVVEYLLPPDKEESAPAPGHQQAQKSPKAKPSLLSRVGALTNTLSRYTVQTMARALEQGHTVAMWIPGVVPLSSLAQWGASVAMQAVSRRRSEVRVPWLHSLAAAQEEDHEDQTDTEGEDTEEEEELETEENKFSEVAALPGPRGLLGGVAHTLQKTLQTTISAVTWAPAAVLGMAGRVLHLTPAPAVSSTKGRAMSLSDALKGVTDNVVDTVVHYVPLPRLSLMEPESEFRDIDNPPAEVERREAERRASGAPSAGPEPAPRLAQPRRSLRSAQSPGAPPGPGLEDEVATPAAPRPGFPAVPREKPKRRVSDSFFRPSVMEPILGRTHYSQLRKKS
UniProt Q8WTS1: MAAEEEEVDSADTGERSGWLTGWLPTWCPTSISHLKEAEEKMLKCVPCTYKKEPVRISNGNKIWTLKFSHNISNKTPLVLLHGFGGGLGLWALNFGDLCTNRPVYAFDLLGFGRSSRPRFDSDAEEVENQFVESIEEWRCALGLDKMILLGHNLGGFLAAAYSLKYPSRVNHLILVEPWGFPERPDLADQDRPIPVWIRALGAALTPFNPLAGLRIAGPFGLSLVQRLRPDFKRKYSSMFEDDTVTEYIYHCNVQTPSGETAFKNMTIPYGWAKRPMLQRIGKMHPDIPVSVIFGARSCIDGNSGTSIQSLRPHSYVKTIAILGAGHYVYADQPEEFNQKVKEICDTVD

Screen size: about 2,000 compounds; about 45 (2%) were called active.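 Rule for the calls: active = inhibition above the screen-wide mean inhibition plus 3 SD (cut at about 44% in these data); inactive = the rest.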 This is one part of the list.

This test concerns the target Perilipin-1 (Homo sapiens) + 1-acylglycerol-3-phosphate O-acyltransferase ABHD5 (Homo sapiens) (UniProt O60240+Q8WTS1). Put plainly: ABHD5-PLIN1 interaction inhibitors, pilot screen, cell lysate, split luciferase complementation, luminescence, NIH validation set (AID 493027).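 Note: 0% = DMSO wells with the 100% control not disclosed.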 The conditions noted are these: split G. princeps luciferase complementation, 4 h; at 7.9 µM, stronger effect = higher value.
Usually inhibition stands for the relative decrease from the control value, in per cent. For `O=C(NCc1ccc(N2CCCC2=O)cc1)c1cccc(Cl)c1`, the inhibition was inactive: -3.89%.
Under `CC(=O)N(CCC(Cc1ccccc1)c1ccco1)Cc1ccco1` (configuration not stated) stands inactive: 40.8%.
Under `C[C@]12CC[C@@H]3c4ccc(O)cc4CC[C@H]3[C@@H]1CC[C@@H]2OC(=O)CCC(=O)O` stands inactive: 9.67%.
The result for `CN(C)CCCN1c2ccccc2Sc2ccccc21` reads inactive: -3.33%; that for `Cn1c(SCC(=O)c2ccccc2)nnc1-c1ccncc1`, inactive: -5.1%.
Regarding `COc1ccc(N2C(=O)[C@@H]3[C@H](C2=O)[C@H]2c4ccccc4C=CN2[C@@H]3C(C)=O)cc1`, the inhibition was inactive: -4.08%.
The result for `Cc1cc(C(C)(C)C)c(O)c(C)c1CC1=NCCN1` reads inactive: -2.1%.
The result for `Nc1c(C(=O)c2ccccc2)oc2ccccc12` reads inactive: 4.15%; that for `CC(CCc1ccccc1)NCC(O)c1ccc(O)c(C(N)=O)c1` (configuration not stated), inactive: -4.1%.
The result for `Cc1ccc(Cl)c(OCCCN(C)Cc2ccccc2)c1` reads inactive: -5.48%; that for `CCc1cc2c(=O)c(-c3ccc4c(c3)OCCO4)coc2c(CN2CCCCC2C)c1O` (configuration not stated), inactive: 19.6%.
For `Cc1[nH]nc(-c2ccc(O)cc2O)c1Oc1ccccc1`, the inhibition is inactive: 14.4%.
Under `C[C@]12CCC(=O)C=C1[C@H](O)C[C@@H]1[C@@H]2[C@@H](O)C[C@@]2(C)[C@H]1CC[C@]2(O)C(=O)CO` stands inactive: -8.52%; under `Cc1oncc1C(=O)Nc1ccc(C(F)(F)F)cc1`, inactive: -4.11%; under `COc1ccc(C(Cl)=C(c2ccc(OC)cc2)c2ccc(OC)cc2)cc1`, inactive: -7.66%.
The result for `O=C(O)c1cccnc1Nc1cccc(C(F)(F)F)c1` reads inactive: 3.88%.
As to `O=C(NCc1ccccc1Cl)NC(=O)c1ccccc1`, the inhibition is inactive: -2.42%.
The result for `CC[N+](C)(C)Cc1ccccc1Br` reads inactive: -3.45%; that for `CC1(C)Oc2ccc(C#N)cc2[C@@H](N2CCCC2=O)[C@@H]1O`, inactive: 0.57%.
For the molecule `CCN1C(=O)C(CC(=O)Nc2ccc(OC)cc2)N(CCc2ccc(F)cc2)C1=S` (configuration not stated), the inhibition was inactive: 9.51%.
The result for `OCCC1CN(Cc2nc(-c3ccccc3)cs2)CCN1Cc1ccc(F)cc1` (configuration not stated) reads inactive: -1.6%.
The result for `c1ccc2c(c1)CCOC2CNCCCN1CCCCC1` (configuration not stated) reads inactive: -15.9%.
The result for `N/C(Cc1ccc(Cl)cc1Cl)=N\OC(=O)c1ccc(Br)o1` reads inactive: -0.38%; that for `CN(Cc1c(C(=O)N(C)Cc2ccccc2)nc2ccccn12)CC1Cc2ccccc2O1` (configuration not stated), inactive: 4.92%; that for `Nc1nc(Cl)nc2c1ncn2[C@H]1C[C@H](O)[C@@H](CO)O1`, inactive: -3.81%.
As for `O=C(O)[C@@H](O)c1ccccc1`, the inhibition was inactive: -1.6%.
With `C/C(CCc1oc2ccc(Cl)cc2c1-c1ccc(C)o1)=N\O`, the inhibition was inactive: 26.2%.
With `CC(=O)c1c(N)nc2n(c1=O)CCCCC2`, the inhibition is inactive: -11.6%.
Under `CC/C(=C1/C(=O)CC(C)(C)C(C(=O)OC)C1=O)N1CCCC1` (configuration not stated) stands inactive: -0.15%; under `CC(=O)C1=C(O)C(=O)N(CC(=O)O)C1c1ccccc1Cl` (configuration not stated), inactive: -3.01%; under `N=C(N)c1ccc(OCCCCCOc2ccc(C(=N)N)cc2)cc1`, inactive: 1.09%.
The result for `CCN(CC)CCN1C(=O)C(=O)/C(=C(/O)c2c(C)[nH]c(C(=O)OC)c2C)C1c1cccnc1` (configuration not stated) reads inactive: 0.26%; that for `COc1ccccc1C(=O)Nc1cc2cc(Br)ccc2oc1=O`, inactive: -9.88%.
The result for `CCCCC(=O)O[C@H]1CC[C@H]2[C@@H]3CCc4cc(O)ccc4[C@H]3CC[C@]12C` reads inactive: -15.8%; that for `Fc1ccc(C(c2ccc(F)cc2)N2CCN(C/C=C/c3ccccc3)CC2)cc1`, inactive: -7.35%.
With `CCOC(=O)C(=O)Nc1ccc(Oc2ccccc2)cc1`, the inhibition was inactive: -8.34%.
As for `CCCc1cc(=O)[nH]c(=S)[nH]1`, the inhibition is inactive: -5.68%.
The result for `COC(=O)CN1C(=S)N(c2ccc(F)cc2)C(=O)C1CC(=O)Nc1ccccc1` (configuration not stated) reads inactive: 3.26%; that for `COc1ccc(CCN(C)CCCC(C#N)(c2ccc(OC)c(OC)c2)C(C)C)cc1OC` (configuration not stated), inactive: -8.8%; that for `Nc1cccc2nc3ccccc3cc12`, inactive: -10.2%.
The result for `O=C(NC1CC1)C1CCN(C2CCN(C(=O)Cc3ccc(F)cc3)CC2)CC1` reads inactive: -12.1%; that for `N/C(=N\OC(=O)c1cccc(Br)c1)c1ccncc1`, inactive: -2.18%.
Under `COc1ccc(-c2coc3c(CN4CCOCC4)c(O)ccc3c2=O)cc1` stands inactive: -9.05%.
Take `CC(=O)N1CCN(c2ccc(NC(=O)/C=C/c3ccccc3)cc2)CC1`: the inhibition was inactive: 5.73%.
In the case of `O=C(Nc1cccc(C(=O)O)c1)/C(=C\c1ccccc1)NC(=O)c1ccccc1`, the inhibition is inactive: -1.42%.
Consider `C[C@]12CCC(=O)C=C1CC[C@@H]1[C@@H]2[C@@H](O)C[C@@]2(C)[C@H]1CC[C@]2(O)C(=O)CO`, for which the inhibition is inactive: -6.79%.
Under `CC(C)N(Cc1nccn1C)C(=O)CC1C(=O)NCCN1Cc1ccccc1C(F)(F)F` (configuration not stated) stands inactive: -11%; under `CNCCCC1c2ccccc2C=Cc2ccccc21`, inactive: -2.42%; under `Cc1ccsc1/C=N\NC(=O)c1ccc2c(c1)OCO2`, inactive: -1.88%.
Under `O=C(O)CC(O)C(=O)O` (configuration not stated) stands inactive: -5.9%; under `Cc1cc(=O)oc(C)c1C(=O)NCCC(C)C`, inactive: -5.42%; under `CC(=O)N1N=C(c2cccs2)CC1c1ccc(C)o1` (configuration not stated), inactive: -8.72%.
Under `O=C(Cc1c[nH]c2ccccc12)OCCOC(=O)Cc1c[nH]c2ccccc12` stands inactive: 19.4%; under `Cn1c(=O)c2nc3ccccc3nc2n(C)c1=O`, inactive: -8.96%.
For the molecule `O=P(O)(O)CP(=O)(O)O`, the inhibition is inactive: -4.16%.
Under `COc1ccc(/C=N\NC(=O)CCc2c(C)n[nH]c2C)c(OC)c1OC` stands inactive: -12%; under `O=C(CCCC(=O)OCC1CCCO1)OCC1CCCO1` (configuration not stated), inactive: -11.4%.
The result for `CC(C(=O)O)c1ccc(-c2ccccc2)c(F)c1` (configuration not stated) reads inactive: -2.81%; that for `C=CCOc1ccc(C(=O)CC)cc1OC`, inactive: -1.94%; that for `Cn1c(=O)[nH]c2nnc(-c3ccc(Cl)c(Cl)c3)nc2c1=O`, inactive: 5.13%.
Regarding `CN(C)C(=O)C(CCN1CCC(O)(c2ccc(Cl)cc2)CC1)(c1ccccc1)c1ccccc1`, the inhibition is inactive: -4.14%.
The result for `CSCCC(NC(=O)OC(C)(C)C)C(=O)Oc1ccc2c(=O)c(-c3ccc4c(c3)OCCO4)coc2c1` (configuration not stated) reads active: 67.4%.
